# Measurements: article PMC12507957 (Drug Delivery and Translational Research, 2025)
# Test: Mass balance studies after 48-h skin permeation of MTG in solvents
# Assay type: in vitro ADME, porcine
# Details: MTG in PG, no receptor medium
# Experimental: The in vitro permeation study was performed in triplicate using Franz diffusion cell apparatus with a diffusion area of ~ 0.8 cm^2 and a receptor volume of ~ 3 mL. The porcine skin was thawed at room temperature and cut into an appropriate size before mounting on the Franz diffusion cells. The receptor compartment was filled with PBS containing 0.02%w/v of sodium azide and a selected antioxidant. The Franz diffusion cells were placed into a water bath to maintain the skin temperature at 32 ± 0.5 °C. […] After 48-h permeation studies, the mass balance studies were performed.
# Subsequently, the surface of the skin was washed twice with 500 μL of methanol before adding to the same Eppendorf tube containing the cotton buds. The skin was removed from the dissembled Franz diffusion cell and cut into pieces before placing in another Eppendorf tube containing 1 mL of methanol. All samples were vortexed and analysed using HPLC (Sect. HPLC analysis).
# Samples were analysed using Shimadzu liquid chromatographic system (Kyoto, Japan) with SPD-20A UV–vis detector set at 254 nm. A reverse phase ZORBAX Eclipse Plus C18 column (Agilent Technologies, 150 × 4.6 mm ID × 3.5 μm) coupled with a C18 guard column (Phenomenex SecurityGuard™, 4 × 3.0 mm ID × 5 μm) was employed as the stationary phase. […]
smiles,measurement,setting,value
"CC[C@@H]1CN2CCc3c([nH]c4cccc(OC)c34)[C@@H]2C[C@@H]1/C(=C\OC)C(=O)OC [MTG, mitragynine]",MTG in the skin (validation of surface wiping procedure),immediately post-application,no detection
same,Percentage recovery of MTG in skin surface washes (validation of surface wiping procedure),"swabbed immediately post-application, n = 3",100.97 ± 0.07%
